Data published in paper PMC9097460, “The molecular basis of spinocerebellar ataxia type 48 caused by a de novo mutation in the ubiquitin ligase CHIP” (The Journal of Biological Chemistry, 2022).
No constants are given. Whether binding was seen depends on the method and setting. Some results given as binding are weak or reduced against the parent protein; the word gives no strength.

Biological target: T1, C terminus of Hsc70 interacting protein (CHIP), wild type, recombinant (human), Q9UNE7
T1 chain: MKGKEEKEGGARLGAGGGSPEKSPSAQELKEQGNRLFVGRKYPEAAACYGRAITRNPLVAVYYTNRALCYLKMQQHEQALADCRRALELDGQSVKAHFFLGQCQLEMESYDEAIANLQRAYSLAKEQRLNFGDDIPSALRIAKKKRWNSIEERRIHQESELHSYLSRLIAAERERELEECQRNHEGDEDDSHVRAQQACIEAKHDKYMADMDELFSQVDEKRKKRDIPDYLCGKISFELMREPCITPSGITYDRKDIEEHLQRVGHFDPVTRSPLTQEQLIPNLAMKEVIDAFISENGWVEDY
Experiment: SEC + other: mass photometry; recombinant CHIP run on size-exclusion chromatography, fractions analysed by mass photometry at 30 nM in 20 mM Hepes pH 8, 200 mM NaCl, 1 mM DTT; both purified
Settings: remark: other sources report otherwise

binding: binds
B1: C terminus of Hsc70 interacting protein (CHIP), wild type, recombinant, Q9UNE7 1-303 (enzyme)
chain: T1 chain
